Experimental data: the supplement of paper PMC11098740
Counter-ions that a name gives are not always drawn. ± gives the standard deviation of the averaged measurements. The list shows a part of the results. Repeats are few or missing, and single values can be far off.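 The assay uses a mixed pool of 41 HAP1 clones in which 61 cancer-associated proteins bear intron-inserted fluorescent tags, and clones are distinguished by image pattern. Results are compared against DMSO-treated control wells, and the BRD4 degrader dBET6 is the positive control.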

Amino acid sequences for entries named in this document (tags omitted).
UniProt O14980, whole entry: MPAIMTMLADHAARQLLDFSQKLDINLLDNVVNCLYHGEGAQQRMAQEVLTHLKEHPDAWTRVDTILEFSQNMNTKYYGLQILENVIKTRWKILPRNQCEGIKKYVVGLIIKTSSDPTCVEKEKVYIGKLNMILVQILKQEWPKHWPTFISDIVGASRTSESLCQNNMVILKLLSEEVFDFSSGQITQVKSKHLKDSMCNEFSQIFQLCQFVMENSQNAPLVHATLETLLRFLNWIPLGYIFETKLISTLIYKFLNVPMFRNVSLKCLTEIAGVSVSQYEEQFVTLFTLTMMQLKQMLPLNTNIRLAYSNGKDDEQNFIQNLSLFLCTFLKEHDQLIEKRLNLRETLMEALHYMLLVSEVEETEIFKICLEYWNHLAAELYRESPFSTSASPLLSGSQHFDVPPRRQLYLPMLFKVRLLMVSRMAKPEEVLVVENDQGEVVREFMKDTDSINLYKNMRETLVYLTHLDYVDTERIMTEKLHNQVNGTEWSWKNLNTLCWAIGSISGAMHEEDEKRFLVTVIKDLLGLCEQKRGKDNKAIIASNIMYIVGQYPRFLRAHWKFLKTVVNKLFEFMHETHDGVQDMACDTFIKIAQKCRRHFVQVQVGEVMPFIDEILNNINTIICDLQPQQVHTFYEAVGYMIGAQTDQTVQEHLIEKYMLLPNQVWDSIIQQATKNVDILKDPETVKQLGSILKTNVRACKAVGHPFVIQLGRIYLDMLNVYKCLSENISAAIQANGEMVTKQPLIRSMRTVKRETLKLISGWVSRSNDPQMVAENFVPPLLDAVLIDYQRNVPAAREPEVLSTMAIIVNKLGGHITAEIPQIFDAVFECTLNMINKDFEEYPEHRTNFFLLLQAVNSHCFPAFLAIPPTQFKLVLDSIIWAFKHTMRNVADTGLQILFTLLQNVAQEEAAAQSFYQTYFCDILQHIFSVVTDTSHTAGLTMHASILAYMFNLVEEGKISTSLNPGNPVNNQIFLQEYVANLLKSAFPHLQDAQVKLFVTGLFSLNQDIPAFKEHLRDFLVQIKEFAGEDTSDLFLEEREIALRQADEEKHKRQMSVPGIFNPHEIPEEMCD

What follows are compounds tested against XPO1 (intron 15 mScarlet tag, HAP1) (UniProt O14980) (assay: XPO1 fluorescence intensity change vs DMSO (log2 fold change); higher = more XPO1 protein). Settings: 6 h.

Q: With C[C@]1(c2nc3c(C(N)=O)cccc3[nH]2)CCCN1 [Veliparib] (10 µM) as the compound, how does the “XPO1 fluorescence intensity change (log2)” value read?
A: 0.0346

Q: How did the “XPO1 fluorescence intensity change (log2)” value turn out when CC1OC2(CS1)CN1CCC2CC1 (configuration not stated) [Cevimeline] (11.8284 µM) was run?
A: -0.141

Q: CC1=C(/C=C/C(C)=C\C=C\C(C)=C\C(=O)O)C(C)(C)CCC1 [Alitretinoin] (20 µM) was tested. Which “XPO1 fluorescence intensity change (log2)” value did it give?
A: 0.0888

Q: How did the “XPO1 fluorescence intensity change (log2)” value turn out when CC1(C)O[C@@H]2[C@@H](CO[C@@]3(COS(N)(=O)=O)OC(C)(C)O[C@@H]23)O1 [Topiramate] (10 µM) was run?
A: -0.228

Q: For C#CCN(C)Cc1ccccc1 [Pargyline] (10.0004 µM), which “XPO1 fluorescence intensity change (log2)” value is on record?
A: 0.0545

Q: With COc1cc(C)c(/C=C/C(C)=C/C=C/C(C)=C/C(=O)O)c(C)c1C [Acitretin] (9.99941 µM) as the compound, how does the “XPO1 fluorescence intensity change (log2)” value read?
A: -0.154

Q: Which “XPO1 fluorescence intensity change (log2)” value does the source give for CCCN[C@H]1CCc2nc(N)sc2C1 [Pramipexole] (10.00012856 µM) here?
A: -0.103

Q: With O=C1CC2(CCCC2)C(O)C(=O)N1CCCCN1CCN(c2ncccn2)CC1 (configuration not stated) [6-Hydroxybuspirone] (10 µM) as the compound, how does the “XPO1 fluorescence intensity change (log2)” value read?
A: 0.0138

Q: Which “XPO1 fluorescence intensity change (log2)” value does the source give for CCN(CC)CCCC(C)Nc1ccnc2cc(Cl)ccc12 (configuration not stated) [Chloroquine] (9.99975 µM) here?
A: -0.00604

Q: With CC(=O)Nc1nnc(S(N)(=O)=O)s1 [Acetazolamide] (10 µM) as the compound, how does the “XPO1 fluorescence intensity change (log2)” value read?
A: -0.0928

Q: How did the “XPO1 fluorescence intensity change (log2)” value turn out when O=C1CCc2ccc(OCCCCN3CCN(c4cccc(Cl)c4Cl)CC3)cc2N1 [Aripiprazole] (10.0009 µM) was run?
A: -0.0791

Q: With Clc1ccc(C(c2ccc(Cl)cc2)N2CCNCC2)cc1 (10 µM) as the compound, how does the “XPO1 fluorescence intensity change (log2)” value read?
A: -0.154

Q: For OC(c1cc(C(F)(F)F)nc2c(C(F)(F)F)cccc12)C1CCCCN1 (configuration not stated) [Mefloquine] (10 µM), which “XPO1 fluorescence intensity change (log2)” value is on record?
A: 0.0316

Q: For NC(=O)OCC(COC(N)=O)c1ccccc1 [Felbamate] (10 µM), which “XPO1 fluorescence intensity change (log2)” value is on record?
A: -0.00118

Q: Which “XPO1 fluorescence intensity change (log2)” value does the source give for C#C[C@]1(O)CC[C@H]2[C@@H]3CCC4=CC(=O)CC[C@@H]4[C@H]3CC[C@@]21CC [Levonorgestrel] (9.99976 µM) here?
A: 0.103

Q: How did the “XPO1 fluorescence intensity change (log2)” value turn out when c1ccc(CC2=NCCN2)cc1 [Tolazoline] (10 µM) was run?
A: 0.0114

Q: With C/C=C1\NC(=O)[C@H]2CSSCC/C=C/[C@H](CC(=O)N[C@H](C(C)C)C(=O)N2)OC(=O)[C@H](C(C)C)NC1=O [Romidepsin] (10 µM) as the compound, how does the “XPO1 fluorescence intensity change (log2)” value read?
A: 0.0689 ± 0.07

Q: How did the “XPO1 fluorescence intensity change (log2)” value turn out when CC(C)(C)C(=O)OCC(=O)[C@H]1CC[C@H]2[C@@H]3CCC4=CC(=O)CC[C@]4(C)[C@H]3CC[C@]12C [Desoxycorticosterone Pivalate] (10.0000892 µM) was run?
A: -0.13

Q: Cc1oncc1C(=O)Nc1ccc(C(F)(F)F)cc1 [Leflunomide] (10 µM) was tested. Which “XPO1 fluorescence intensity change (log2)” value did it give?
A: -0.0288

Q: Which “XPO1 fluorescence intensity change (log2)” value does the source give for CCCCCOC(=O)Nc1nc(=O)n([C@@H]2O[C@H](C)[C@@H](O)[C@H]2O)cc1F [Capecitabine] (20 µM) here?
A: -0.053

Q: How did the “XPO1 fluorescence intensity change (log2)” value turn out when CCCCCCCCCCCCCCCCCCOP(=O)([O-])OC1CC[N+](C)(C)CC1 [Perifosine] (20 µM) was run?
A: 0.0265

Q: With COc1cc(C(=O)NCc2ccc(OCCN(C)C)cc2)cc(OC)c1OC [Trimethobenzamide] (10 µM) as the compound, how does the “XPO1 fluorescence intensity change (log2)” value read?
A: -0.132

Q: CC1(C)NC(=O)N(c2ccc([N+](=O)[O-])c(C(F)(F)F)c2)C1=O [Nilutamide] (20 µM) was tested. Which “XPO1 fluorescence intensity change (log2)” value did it give?
A: 0.105

Q: COCCCOc1cc(C[C@@H](C[C@H](N)[C@@H](O)C[C@H](C(=O)NCC(C)(C)C(N)=O)C(C)C)C(C)C)ccc1OC [Aliskiren] (10.0003 µM) was tested. Which “XPO1 fluorescence intensity change (log2)” value did it give?
A: 0.0222

Q: Which “XPO1 fluorescence intensity change (log2)” value does the source give for CN(C)CC[C@@H](c1ccc(Cl)cc1)c1ccccn1 [Dexchlorpheniramine] (10.00011514 µM) here?
A: -0.0964

Q: How did the “XPO1 fluorescence intensity change (log2)” value turn out when CN1C(CCl)Nc2cc(Cl)c(S(N)(=O)=O)cc2S1(=O)=O (configuration not stated) [Methyclothiazide] (9.99974 µM) was run?
A: 0.194

Q: Which “XPO1 fluorescence intensity change (log2)” value does the source give for CC[C@H](Nc1ncnc2[nH]cnc12)c1nc2cccc(F)c2c(=O)n1-c1ccccc1 [Idelalisib] (10 µM) here?
A: 0.132

Q: Which “XPO1 fluorescence intensity change (log2)” value does the source give for CC/C(=C(\c1ccc(O)cc1)c1ccc(OCCNC)cc1)c1ccccc1 [Endoxifen (hydrochloride)] (10 µM) here?
A: -0.0663

Q: Which “XPO1 fluorescence intensity change (log2)” value does the source give for Cn1nnc2c(C(N)=O)ncn2c1=O [Temozolomide] (20 µM) here?
A: 0.171

Q: How did the “XPO1 fluorescence intensity change (log2)” value turn out when CCCc1nn(C)c2c(=O)[nH]c(-c3cc(S(=O)(=O)N4CCN(C)CC4)ccc3OCC)nc12 [Sildenafil] (9.999439551 µM) was run?
A: 0.101

Q: How did the “XPO1 fluorescence intensity change (log2)” value turn out when C[C@H](N[C@@H](CCc1ccccc1)C(=O)O)C(=O)N1CCC[C@H]1C(=O)O [Enalaprilat] (9.99909 µM) was run?
A: -0.0619

Q: With CN(C)CCCN1c2ccccc2Sc2ccc(C(F)(F)F)cc21 [Triflupromazine] (10 µM) as the compound, how does the “XPO1 fluorescence intensity change (log2)” value read?
A: 0.0355
